Assay results published in article PMC3973283.
These are yes or no findings as the source states them, for the method shown. In cells and extracts the contact can be indirect. Sequences can lack the tags named with a protein.

Target: T1, FLAG-PR-Set7 (UniProt Q9NQR1)
T1 sequence: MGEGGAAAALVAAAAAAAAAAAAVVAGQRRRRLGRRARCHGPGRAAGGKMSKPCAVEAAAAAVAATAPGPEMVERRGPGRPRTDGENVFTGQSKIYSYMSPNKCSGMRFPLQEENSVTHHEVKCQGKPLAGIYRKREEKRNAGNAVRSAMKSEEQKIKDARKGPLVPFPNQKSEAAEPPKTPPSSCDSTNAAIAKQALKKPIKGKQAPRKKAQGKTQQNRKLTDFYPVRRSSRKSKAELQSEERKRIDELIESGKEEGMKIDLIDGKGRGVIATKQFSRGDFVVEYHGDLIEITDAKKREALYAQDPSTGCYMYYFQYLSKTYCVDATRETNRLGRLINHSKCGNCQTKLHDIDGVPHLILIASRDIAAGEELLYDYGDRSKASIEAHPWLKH
Assay: co-IP; HeLa or HCT116 cells transfected with FLAG-PR-Set7 or FLAG-GFP; FLAG-immunoprecipitation; Western analysis of endogenous Riz1 (Figure 6B)

binding: no binding
Substance: endogenous mutant Riz1 (HCT116) (from UniProt Q13029-1)
